No constants are given. Whether binding was seen depends on the method and setting. In cells and extracts the contact can be indirect. Some entries that bind do so weakly or less than the wild type.

The chains behind the UniProt entries cited, without tags or fusion partners.
UniProt Q8CFI0: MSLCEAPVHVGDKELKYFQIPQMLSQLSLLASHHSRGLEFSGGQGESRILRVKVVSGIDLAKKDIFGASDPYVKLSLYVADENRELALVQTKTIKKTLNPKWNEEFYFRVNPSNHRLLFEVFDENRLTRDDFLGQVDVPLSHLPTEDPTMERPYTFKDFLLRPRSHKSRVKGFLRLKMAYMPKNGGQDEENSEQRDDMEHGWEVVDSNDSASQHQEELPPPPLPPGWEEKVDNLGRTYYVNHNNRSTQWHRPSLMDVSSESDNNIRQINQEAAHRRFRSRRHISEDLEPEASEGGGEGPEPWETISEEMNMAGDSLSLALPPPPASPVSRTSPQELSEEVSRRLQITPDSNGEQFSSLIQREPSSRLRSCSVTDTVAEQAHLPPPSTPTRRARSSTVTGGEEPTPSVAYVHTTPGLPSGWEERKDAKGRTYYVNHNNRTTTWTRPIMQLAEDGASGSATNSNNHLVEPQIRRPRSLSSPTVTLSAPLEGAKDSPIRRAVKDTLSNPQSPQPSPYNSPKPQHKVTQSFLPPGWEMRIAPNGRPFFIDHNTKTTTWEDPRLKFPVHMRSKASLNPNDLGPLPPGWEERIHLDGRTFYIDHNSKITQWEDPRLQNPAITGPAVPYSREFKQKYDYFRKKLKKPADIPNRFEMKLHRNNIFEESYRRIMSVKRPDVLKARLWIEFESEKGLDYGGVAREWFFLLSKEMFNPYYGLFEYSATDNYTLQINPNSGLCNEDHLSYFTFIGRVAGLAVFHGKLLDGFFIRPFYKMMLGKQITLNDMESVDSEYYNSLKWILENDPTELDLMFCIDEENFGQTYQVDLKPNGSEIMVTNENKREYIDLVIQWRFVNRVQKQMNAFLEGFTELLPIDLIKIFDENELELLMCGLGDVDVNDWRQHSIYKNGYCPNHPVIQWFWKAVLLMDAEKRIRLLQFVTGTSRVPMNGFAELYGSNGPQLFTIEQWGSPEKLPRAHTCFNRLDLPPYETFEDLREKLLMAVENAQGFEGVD
UniProt P43006: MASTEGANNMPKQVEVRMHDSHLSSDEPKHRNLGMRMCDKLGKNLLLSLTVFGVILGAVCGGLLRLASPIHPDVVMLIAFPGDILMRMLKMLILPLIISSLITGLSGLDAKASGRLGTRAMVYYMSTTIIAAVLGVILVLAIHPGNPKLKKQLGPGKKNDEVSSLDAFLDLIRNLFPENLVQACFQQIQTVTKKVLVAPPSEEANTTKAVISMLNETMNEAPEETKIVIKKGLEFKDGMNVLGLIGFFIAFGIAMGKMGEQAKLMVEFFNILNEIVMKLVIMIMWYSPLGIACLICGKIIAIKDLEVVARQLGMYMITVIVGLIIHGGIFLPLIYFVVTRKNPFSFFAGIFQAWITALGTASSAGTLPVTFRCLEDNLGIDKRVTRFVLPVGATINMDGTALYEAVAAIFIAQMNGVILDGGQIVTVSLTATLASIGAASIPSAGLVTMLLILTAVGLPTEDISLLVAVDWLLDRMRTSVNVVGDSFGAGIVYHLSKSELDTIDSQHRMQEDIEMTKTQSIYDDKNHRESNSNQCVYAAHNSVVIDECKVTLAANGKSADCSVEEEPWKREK

Assay [1] has as its target Nedd4-2, endogenous in mouse midbrain (mouse (endogenous in C57BL/6 midbrain)) (UniProt Q8CFI0). The experiment in a line: co-IP; midbrain lysates of C57BL/6 mice in RIPA buffer, mice given saline or MPTP for 5 days and killed 3 days after the last injection; protein A/G agarose, Western blot; capture antibody not told. Background: In western blotting, separated proteins are transferred to a membrane and probed.

Assay [2] addresses T1, caveolin-1, endogenous in primary astrocytes (not stated (endogenous in primary cortical astrocytes)) (UniProt P49817).
T1 sequence: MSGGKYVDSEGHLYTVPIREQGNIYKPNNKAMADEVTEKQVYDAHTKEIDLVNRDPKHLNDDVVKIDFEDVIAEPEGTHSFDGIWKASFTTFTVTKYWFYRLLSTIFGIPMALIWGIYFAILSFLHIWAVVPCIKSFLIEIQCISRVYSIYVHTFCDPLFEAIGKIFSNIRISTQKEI
Nature of the assay: co-IP; lysates of primary astrocytes in ice-cold RIPA buffer; capture antibody (anti-Nedd4-2, anti-GLT-1 or anti-caveolin-1) overnight at 4 °C, protein A/G agarose 4 h, four washes with RIPA, Western blot; cells untreated or treated with MPP+ (1 mM) or PMA for 24 or 48 h; normal IgG as negative control.

The target in assay [3] is glutamate transporter-1 (GLT-1), endogenous in primary astrocytes (not stated (endogenous in primary cortical astrocytes)) (UniProt P43006). The description is as above.
Assay [4] has as its target Nedd4-2 (neuronal precursor cell expressed developmentally down-regulated 4-2), endogenous in primary astrocytes (not stated (endogenous in primary cortical astrocytes)) (UniProt Q8CFI0). The assay is described as above.

Regarding “GLT-1, endogenous in mouse midbrain (from UniProt P43006 1-572)”, the binding result in assay [1] was “binds”.
For “Nedd4-2 (neuronal precursor cell expressed developmentally down-regulated 4-2), endogenous in primary astrocytes (from UniProt Q8CFI0 1-1004) (enzyme)”, the binding entry in assay [2] and in assay [3] was “binds” in each case.
In the case of “glutamate transporter-1 (GLT-1), endogenous in primary astrocytes (from UniProt P43006 1-572)”, the binding entry in assay [2] and in assay [4] was “binds” throughout.

B1: GLAST, endogenous in mouse midbrain (protein, UniProt P56564 1-543)
chain: MTKSNGEEPRMGGRMERLQQGVRKRTLLAKKKVQSLTKEDVKSYLFRNAFVLLTVTAVIVGTILGFALRPYKMSYREVKYFSFPGELLMRMLQMLVLPLIISSLVTGMAALDSKASGKMGMRAVVYYMTTTIIAVVIGIIIVIIIHPGKGTKENMYREGKIVQVTAADAFLDLIRNMFPPNLVEACFKQFKTSYEKRSFKVPIQSNETLLGAVINNVSEAMETLTRIREEMVPVPGSVNGVNALGLVVFSMCFGFVIGNMKEQGQALREFFDSLNEAIMRLVAVIMWYAPLGILFLIAGKIVEMEDMGVIGGQLAMYTVTVIVGLLIHAVIVLPLLYFLVTRKNPWVFIGGLLQALITALGTSSSSATLPITFKCLEENNGVDKRITRFVLPVGATINMDGTALYEALAAIFIAQVNNFDLNFGQIITISITATAASIGAAGIPQAGLVTMVIVLTSVGLPTDDITLIIAVDWFLDRLRTTTNVLGDSLGAGIVEHLSRHELKNRDVEMGNSVIEENEMKKPYQLIAQDNEPEKPVADSETKM
B1: the binding result in assay [1] is on record as “binds”.

B2: glutamate/aspartate transporter (GLAST), endogenous in primary astrocytes (protein, UniProt P56564 1-543)
chain: MTKSNGEEPRMGGRMERLQQGVRKRTLLAKKKVQSLTKEDVKSYLFRNAFVLLTVTAVIVGTILGFALRPYKMSYREVKYFSFPGELLMRMLQMLVLPLIISSLVTGMAALDSKASGKMGMRAVVYYMTTTIIAVVIGIIIVIIIHPGKGTKENMYREGKIVQVTAADAFLDLIRNMFPPNLVEACFKQFKTSYEKRSFKVPIQSNETLLGAVINNVSEAMETLTRIREEMVPVPGSVNGVNALGLVVFSMCFGFVIGNMKEQGQALREFFDSLNEAIMRLVAVIMWYAPLGILFLIAGKIVEMEDMGVIGGQLAMYTVTVIVGLLIHAVIVLPLLYFLVTRKNPWVFIGGLLQALITALGTSSSSATLPITFKCLEENNGVDKRITRFVLPVGATINMDGTALYEALAAIFIAQVNNFDLNFGQIITISITATAASIGAAGIPQAGLVTMVIVLTSVGLPTDDITLIIAVDWFLDRLRTTTNVLGDSLGAGIVEHLSRHELKNRDVEMGNSVIEENEMKKPYQLIAQDNEPEKPVADSETKM
As for B2, the binding entry in assay [4] is given as “binds”.

B3: caveolin-1, endogenous in primary astrocytes (protein, UniProt P49817 1-178)
chain: MSGGKYVDSEGHLYTVPIREQGNIYKPNNKAMADEVTEKQVYDAHTKEIDLVNRDPKHLNDDVVKIDFEDVIAEPEGTHSFDGIWKASFTTFTVTKYWFYRLLSTIFGIPMALIWGIYFAILSFLHIWAVVPCIKSFLIEIQCISRVYSIYVHTFCDPLFEAIGKIFSNIRISTQKEI
As for B3, the binding result in assay [4] and in assay [3] was “binds” in each case.

Source of the values: paper PMC5386455.
